In PubChem BioAssay AID540276 (National Center for Advancing Translational Sciences (NCATS), 2011):
About 5,400 (1.8%) of roughly 300,000 compounds were called active. Inconclusive results, whose numbers are uncertain, are shown with a selection of clear calls. Calls follow the shape of the full dose curve; tested in HEK293 cells. Potencies of inconclusive entries are doubtful fits and often do not repeat.

Test: qHTS for inhibitors of binding or entry into cells for Marburg Virus
Details: Marburg virus pseudotyped entry inhibition, cell reporter; series mostly up to 37.8 µM
Potency is read from the fitted curve at half-maximal effect.

| Structure (SMILES) | Potency |
| --- | --- |
| CC1=C(C#N)C(C(F)(F)F)(C(F)(F)F)N=C(c2ccco2)N1 | inconclusive: 32.6 µM [inhibitor, single point] |
| CC(NC(=O)c1ccccc1Cl)C1COc2ccccc2O1 (configuration not stated) | inactive |
| O=C(c1ccccc1)N(Cc1nc2ccccc2c(=O)[nH]1)C1CCCCC1 | inconclusive: 10 µM [inhibitor, partial curve, poor fit] |
| Cn1cc(Cl)c(-c2n[nH]c(=S)n2-c2ccccc2)n1 | inconclusive: 3.16 µM [activator, full curve, poor fit] |
| CCOc1ccccc1C(=O)N1CCc2cc(OC)c(OC)cc2C1COc1ccc2c(C)cc(=O)oc2c1 (configuration not stated) | inconclusive: 39.8 µM [inhibitor, partial curve, poor fit] |
| CCOC(=O)C1(C(C)(C)CC)CC(CSc2nc3ccccc3[nH]2)OC1=O (configuration not stated) | inconclusive: 29.1 µM [inhibitor, single point] |
| CC(=O)c1cccc(-n2c(CCC(=O)O)ccc2-c2ccccc2)c1 | inconclusive: 35.5 µM [inhibitor, single point] |
| Cc1ccc(C)c(NC(=O)Cn2ccn(-c3ccc4c(c3)OCO4)c(=O)c2=O)c1 | inconclusive: 2.82 µM [inhibitor, partial curve] |
| Cc1c(N(C(=O)Cc2cccs2)C2(C(=O)NC3CCCC3)CCCCC2)c(=O)n(-c2ccccc2)n1C | inactive |
| Cc1cc(C)cc(N(CC(=O)NCc2ccc3c(c2)OCO3)C(=O)CCC(=O)Nc2ccccn2)c1 | inconclusive: 35.5 µM [inhibitor, single point] |
| CCN(CCCNC(=O)C1CCC(=O)N1Cc1ccccc1Cl)c1cccc(C)c1 (configuration not stated) | inconclusive: 35.5 µM [inhibitor, partial curve, poor fit] |
| COc1ccc(-c2nc(SCC(=O)NC3CCCC3)c(-c3ccccc3)[nH]2)cc1OC | inactive |
| CCOC(=O)CN1C(=O)S/C(=C/c2ccc3c(c2)n(C)c(=O)n3C)C1=O | inactive |
| O=C(Nc1ccc(Cn2cccn2)cc1)c1ccc(COc2cccc(Br)c2)cc1 | active: 0.562 µM |
| S=c1nc(-c2ccccc2)[nH]n1-c1ccccc1 | inconclusive: 23.1 µM [activator, single point] |
| CCN1C(=O)c2cccc3c(NS(=O)(=O)c4ccc(NC(C)=O)cc4)ccc1c23 | inconclusive: 29.1 µM [inhibitor, single point] |
| COc1cc(/C=C2\C(=O)NC(=O)N(c3ccccc3)C2=O)cc(OC)c1O | inactive |
| O=C(CCNc1ccccc1)c1cccc([N+](=O)[O-])c1 | inconclusive: 0.517 µM [inhibitor, full curve, poor fit] |
| Cc1ccc(NC(=O)N2CCC(c3nc4c(nnn4Cc4c(F)cccc4Cl)c(=O)[nH]3)CC2)cc1 | inconclusive: 20.6 µM [inhibitor, partial curve, poor fit] |
| O=C(COC(=O)c1ccco1)NC12CC3CC(CC(C3)C1)C2 | inconclusive: 0.282 µM [inhibitor, partial curve, poor fit] |
| Cc1ccsc1/C=C/c1ccc2ccccc2n1 | inconclusive: 14.1 µM [inhibitor, single point] |
| CC(C)(C)c1ccc(C(=O)NC(=S)Nc2nc3c(s2)CCCC3)cc1 | active: 1.26 µM |
| CCN(CC)c1ccc2c(c1)OC(N)=C(C#N)C2c1cccnc1 (configuration not stated) | inconclusive: 0.562 µM [inhibitor, full curve, poor fit] |

Exported as labelled records: entries from further up
CCOc1ccccc1C(=O)N1CCc2cc(OC)c(OC)cc2C1COc1ccc2c(C)cc(=O)oc2c1 (configuration not stated)
  Potency: inconclusive: 39.8 µM [inhibitor, partial curve, poor fit]
CCOC(=O)C1(C(C)(C)CC)CC(CSc2nc3ccccc3[nH]2)OC1=O (configuration not stated)
  Potency: inconclusive: 29.1 µM [inhibitor, single point]
CC(=O)c1cccc(-n2c(CCC(=O)O)ccc2-c2ccccc2)c1
  Potency: inconclusive: 35.5 µM [inhibitor, single point]
Cc1ccc(C)c(NC(=O)Cn2ccn(-c3ccc4c(c3)OCO4)c(=O)c2=O)c1
  Potency: inconclusive: 2.82 µM [inhibitor, partial curve]

The list goes on:

| Structure (SMILES) | Potency |
| --- | --- |
| O=[N+]([O-])c1ccc(CS(=O)(=O)c2ccc(Cl)cc2)cc1 | inconclusive: 0.891 µM [inhibitor, partial curve, poor fit] |
| Cc1ncc(CO)c(/C=N/NC(=S)Nc2ccc(F)cc2)c1O | active: 14.1 µM |
| COc1ccc(Nc2ccc(N3C(=O)CCCC3=O)cc2[N+](=O)[O-])c(OC)c1 | inactive |
| N=c1n(CCO)c2ccccc2n1CCOc1ccc(F)cc1 | inactive |
| COc1cc(C2c3[nH]c4ccccc4c3CCN2Cc2cn(C)nc2C)ccc1F (configuration not stated) | inconclusive: 10 µM [inhibitor, partial curve, poor fit] |
| CC(C)NC(=O)c1ccc(COCC(F)(F)F)cc1 | inactive |
| CCN(CC)CCNc1ncnc2c1sc1nc(N3CCOCC3)c3c(c12)CCCC3 | inconclusive: 7.08 µM [inhibitor, partial curve, poor fit] |
| COc1cc(/C=C2/C(=O)NN(c3ccc(F)cc3)C2=O)cc(Cl)c1O | inconclusive: 15.8 µM [inhibitor, single point] |
| COCCn1c(SCC(=O)c2cccc(OC)c2)nnc1-c1ccco1 | inconclusive: 15.8 µM [activator, single point] |
| CNc1nc(OCC(F)(F)F)nc(N2CCOCC2)n1 | inconclusive: 1.26 µM [activator, single point] |
| CCCCn1c(N)c(N(CCC(C)C)C(=O)COC(=O)c2ccc(CC)cc2)c(=O)[nH]c1=O | inconclusive: 35.5 µM [inhibitor, single point] |
| Cn1c(NCc2ccccc2F)nc2ccccc21 | inconclusive: 14.1 µM [activator, partial curve, poor fit] |
| COCCN1C=C(C(=O)OC)C(c2cc(Br)c(OC)c(OC)c2)C(C(=O)OC)=C1 | inactive |
| Cc1ccccc1NS(=O)(=O)c1cc(C(=O)Nc2cccc([N+](=O)[O-])c2)ccc1C | inconclusive: 20.6 µM [inhibitor, single point] |
| COc1ccc(N(CC(O)CN2CCCCC2)S(=O)(=O)c2ccc(C)cc2)cc1 (configuration not stated) | inconclusive: 29.1 µM [inhibitor, single point] |
| Cc1ccc(C(=O)Nc2nnc(SCC(=O)N3CCCc4ccccc43)s2)cc1 | inconclusive: 1.41 µM [inhibitor, full curve, poor fit] |
| O=C(c1ccc2c(=O)n3c(nc2c1)CCCCC3)N1CCN(c2ccccc2)CC1 | inactive |
| COc1ccccc1NC(=S)NNC(=O)c1ccc(O)cc1 | inconclusive: 35.5 µM [activator, single point] |
| Cc1ccc[n+](CC(=O)/C=C2\N(C)c3ccccc3C2(C)C)c1 | inconclusive: 22.4 µM [inhibitor, single point] |
| CCn1c(=O)c(C(=O)CN2CCCc3ccccc32)c(N)n(Cc2ccccc2)c1=O | inconclusive: 20.6 µM [inhibitor, single point] |
| CCOCCCn1c(SCc2nc3ccccc3s2)nc2ccccc2c1=O | active: 7.08 µM |
| COc1ccc2ncc3c(-c4ccccc4)nn(-c4ccc(C)c(C)c4)c3c2c1 | inactive |
| Cc1nc2cc(NC(=O)Nc3cccc([N+](=O)[O-])c3)ccc2n1C | inconclusive: 0.794 µM [activator, partial curve, poor fit] |

| Structure (SMILES) | Potency |
| --- | --- |
| CCCSc1nc(C)nc2c1c(=O)n(C)c(=O)n2C | inactive |
| CCOC(=O)c1c(Nc2ccc(OCC)cc2)nnc(-c2ccccc2)c1-c1ccccc1 | inactive |
| O=C(CSc1nnc(-c2ccc(F)cc2)c2ccccc12)Nc1cccc(Cl)c1 | inconclusive: 31.6 µM [inhibitor, single point] |
| COc1ccc(N2CC(C(=O)Nc3ccccc3C(=O)NCc3ccco3)CC2=O)cc1 (configuration not stated) | inactive |
| FC(F)Oc1ccc(-c2csc(=Nc3cccnc3)n2CC2CCCO2)cc1 (configuration not stated) | inconclusive: 7.94 µM [inhibitor, partial curve, poor fit] |
| Cc1n[nH]c(=S)n1/N=C/c1ccccc1OCc1ccc(Cl)cc1Cl | inactive |
| COc1ccc(NC(=O)CSCC(=O)Oc2c(OC)cccc2OC)cc1 | inconclusive: 5.62 µM [inhibitor, single point] |
| O=C(Nc1ccon1)c1ccc(S(=O)(=O)N2CCCCCC2)cc1 | inconclusive: 6.31 µM [inhibitor, partial curve, poor fit] |
| NC(=O)CCCCC(=O)OCCCc1cccs1 | inconclusive: 23.1 µM [activator, partial curve, poor fit] |
| COc1ccc(CN2C(=O)c3ccccc3C2=O)cc1 | inconclusive: 3.16 µM [activator, single point] |
| COc1ccc(C2=Nc3ccc(C)cc3C(c3ccccc3)N2CC(=O)NN)cc1 (configuration not stated) | inconclusive: 7.94 µM [inhibitor, partial curve, poor fit] |
| Cc1ccc(-c2nc(CSCC(=O)NCc3cccnc3)c(C)o2)cc1 | inconclusive: 29.1 µM [inhibitor, partial curve, poor fit] |
| CCOC(=O)c1c(CS(=O)(=O)c2ccccc2)n(C)c2cc(Br)c(O)c(CN(C)C)c12 | inactive |
| Cn1c(=O)c2c(nc(CN3CCc4ccccc4C3)n2CC(=O)c2ccccc2)n(C)c1=O | inconclusive: 2.31 µM [inhibitor, partial curve] |
| CCOc1ccc(/C(O)=C2/C(=O)C(=O)N(c3ccccn3)C2c2ccc(Cl)cc2)c(C)c1 (configuration not stated) | inconclusive: 0.891 µM [activator, partial curve, poor fit] |
| COc1ccc(C(=O)CN2C(=O)NC3(CCCc4ccccc43)C2=O)cc1OC (configuration not stated) | inactive |
| CCCCSC1=NN1c1nc(N)nc(C)c1CC | inactive |
| CCC(=O)NC(=S)Nc1cccc(NC(=O)c2ccccc2)c1 | inconclusive: 35.5 µM [inhibitor, single point] |
| N#CC(C(=O)NC1CCCCC1)=C1CCCCCC1 | inconclusive: 3.16 µM [inhibitor, single point] |
| O=C1OC(Nc2ncccn2)c2ccccc21 (configuration not stated) | inactive |
| CC(c1ccco1)N(C(=O)c1cccc(Br)c1)c1ccccn1 (configuration not stated) | inconclusive: 10 µM [inhibitor, partial curve, poor fit] |
